Measurements as given in PubChem BioAssay AID1671190 (National Center for Advancing Translational Sciences (NCATS), 2021).
Hit rate of the full screen: of about 580,000 compounds, about 6,100 (1.1%) were called active. Inconclusive means that the source gave no clear call. Such entries were picked first, then a sample of the others. The call rests on the fitted dose curve; in most records, active means well fitted inhibition curve with a large enough effect; inconclusive means small, poorly fitted or top-dose-only effect, or another doubt; inactive means no such curve, though single readings can be large or run the other way. A potency beside an inconclusive call is a rough fit, not a confirmed value.

By UniProt entry, the sequences of proteins in these tests, tags left out. Where a name states a change or a piece, a line headed by the entry shows the natural chain unless it says otherwise.
UniProt P18054: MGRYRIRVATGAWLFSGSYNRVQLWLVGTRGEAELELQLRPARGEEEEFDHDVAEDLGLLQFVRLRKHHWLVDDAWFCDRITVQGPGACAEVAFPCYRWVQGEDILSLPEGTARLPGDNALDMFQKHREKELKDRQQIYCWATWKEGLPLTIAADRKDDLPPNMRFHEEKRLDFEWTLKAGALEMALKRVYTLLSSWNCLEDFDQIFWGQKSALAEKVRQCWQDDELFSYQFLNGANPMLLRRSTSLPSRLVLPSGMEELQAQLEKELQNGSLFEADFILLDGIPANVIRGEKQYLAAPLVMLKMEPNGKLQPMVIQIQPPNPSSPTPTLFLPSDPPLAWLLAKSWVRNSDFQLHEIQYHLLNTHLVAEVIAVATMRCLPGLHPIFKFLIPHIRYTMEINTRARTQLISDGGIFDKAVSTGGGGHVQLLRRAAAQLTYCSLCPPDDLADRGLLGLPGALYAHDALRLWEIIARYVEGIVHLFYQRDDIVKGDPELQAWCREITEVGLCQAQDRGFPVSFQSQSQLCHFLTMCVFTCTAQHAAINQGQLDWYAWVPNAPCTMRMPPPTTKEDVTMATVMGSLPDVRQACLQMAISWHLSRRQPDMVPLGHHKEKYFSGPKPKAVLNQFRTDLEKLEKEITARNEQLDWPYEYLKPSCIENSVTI

Each molecule was assayed against Polyunsaturated fatty acid lipoxygenase ALOX12 (Homo sapiens) (UniProt P18054) (assay: Primary qHTS assay for inhibitors of human arachidonate 12S-lipoxygenase (ALOX12): Round 2). Settings: purified 12hLO, xylenol orange hydroperoxide absorbance; series mostly up to 108 µM.
Procedure, shortened: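 Hydroperoxide product was detected by ferrous iron/xylenol orange as the 573 to 405 nm absorbance ratio. Arachidonic acid at 40 uM (final) was turned over for 30 min at room temperature by 150 nM human 12hLO, pH 7.0 Hepes buffer, after 15 min compound preincubation.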
Potency means the concentration at half of the fitted maximal effect.

| Structure (SMILES) | Potency |
| --- | --- |
| Nc1ccnc(=O)[nH]1 | inactive |
| CSc1ccc(OC2(C)CCN(Cc3ccc(OC(F)(F)F)cc3)C2)cc1 (configuration not stated) | inconclusive: 70.8 µM [inhibitor, partial curve, poor fit] |
| CN(Cc1ccccc1C(F)(F)F)C(=O)C1CC1 | inactive |
| Nc1nc(C(F)(F)F)c(Br)c(=O)n1N | inconclusive: 39.8 µM [inhibitor, partial curve, poor fit] |
| CCOc1ccccc1CNC(=O)CCCN1C(=O)CCn2nc(-c3cccn3C)cc21 | inconclusive: 89.1 µM [inhibitor, partial curve, poor fit] |
| Cc1cc(C)cc(C(=O)NC23CC4CC(CC(C4)C2)C3)c1 | inconclusive: 44.7 µM [inhibitor, single point] |
| CN(C)c1ccc(C(=O)NC[C@H]2O[C@@H](CO)[C@@H](O)[C@H]2N2CCN(c3ccccn3)CC2)cc1 | inconclusive: 10 µM [inhibitor, full curve] |
| Cc1ccc(C)c(NC(=O)CCC(=O)NNS(=O)(=O)c2ccc(Cl)cc2)c1 | inconclusive: 39.8 µM [inhibitor, partial curve, poor fit] |
| CC[C@@H]1Cn2c(c3nc(-c4ccccc4)nc-3n(C)c2=O)N1 | inconclusive: 25.1 µM [inhibitor, full curve, poor fit] |
| COC(=O)CCC(=O)Oc1cc(C)c(C2(c3cc(C(C)C)c(OC(=O)CCC(=O)OC)cc3C)OC(=O)c3ccccc32)cc1C(C)C | inactive |
| CCCCn1c(N)c(N(CCOC)C(=O)c2cc3c(s2)CCCCC3)c(=O)[nH]c1=O | inconclusive: 112 µM [inhibitor, partial curve, poor fit] |
| CC1(C2CC(C(F)(F)F)n3nc(C(=O)O)cc3N2)CC1 (configuration not stated) | inconclusive: 8.91 µM [inhibitor, full curve, poor fit] |
| COc1ccccc1OCC(=O)c1c(C)[nH]c2ccccc12 | inconclusive: 39.8 µM [inhibitor, partial curve, poor fit] |
| CCOC(=O)c1nc(-c2ccccc2)oc1N(C)C | inactive |
| Cc1cc(CNC(=S)Nc2ccc(Br)cc2Cl)nn1C | inconclusive: 50.1 µM [inhibitor, partial curve, poor fit] |
| O=C(c1ccco1)N1CCC2(CC1)CCN(c1ccccn1)CC2 | inconclusive: 28.2 µM [inhibitor, single point] |
| CN(Cc1nc2ccsc2c(=O)[nH]1)C(=O)COc1cccc(F)c1 | active: 5.01 µM |
| CCc1ccc(CNC(=O)c2noc(-c3ccc4c(c3)OCO4)n2)cc1 | inactive |
| N#Cc1ncn(Cc2coc(-c3ccc(Cl)cc3)n2)n1 | inconclusive: 50.1 µM [inhibitor, single point] |
| C=CCSc1nc2c(c(=O)[nH]c(=O)n2C)n1CC | inconclusive: 31.6 µM [inhibitor, single point] |
| COc1cc(OC)c(NC(=S)NCc2ccc(F)cc2)cc1Cl | inconclusive: 44.7 µM [inhibitor, partial curve, poor fit] |

| Structure (SMILES) | Potency |
| --- | --- |
| CCOC(=O)c1c(C)[nH]c(C)c1S(=O)(=O)N1CCCC(C(=O)N2CCN(c3cc(C)ccc3C)CC2)C1 (configuration not stated) | inconclusive: 112 µM [inhibitor, partial curve, poor fit] |
| COc1ccc(OC)c(-c2c3c([nH]c(=S)c2C#N)CCCC3)c1 | inconclusive: 70.8 µM [inhibitor, partial curve, poor fit] |
| CCn1ncnc1C(C)NC1CCC2(CCNCC2)CC1 (configuration not stated) | inconclusive: 8.91 µM [inhibitor, partial curve, poor fit] |
| CN(Cc1ccccc1)c1nc2c(c(=O)[nH]c(=O)n2C)n1Cc1ccccc1 | inconclusive: 44.7 µM [inhibitor, full curve, poor fit] |
| C[C@](N)(C(=O)O)c1ccc(-c2nn[nH]n2)cc1 | inconclusive: 1 µM [inhibitor, full curve, poor fit] |
| CN(C)[C@H]1CCN(C(=O)c2ccc(S(N)(=O)=O)cc2)C[C@H]1CCC(=O)O | inconclusive: 35.5 µM [inhibitor, partial curve] |
| O=C(Nc1nnc(Cc2ccccc2)s1)c1ccco1 | inactive |
| c1ccc(-c2nc(SCc3ncc(-c4ccccc4)o3)n[nH]2)cc1 | inactive |
| CSc1nc2c(C)c(C)c(C)c(C)c2[nH]1 | inactive |
| COc1ccc(-c2nc(-c3ccccc3)c(-c3cc([N+](=O)[O-])ccc3C)[nH]2)cc1OC | inconclusive: 79.4 µM [inhibitor, partial curve, poor fit] |
| O=C(OCCOc1ccc(Br)cc1)c1cnccn1 | inconclusive: 35.5 µM [inhibitor, partial curve, poor fit] |
| COCCn1c2c(c(=O)n1-c1ccccc1)CCN(C(=O)c1cccc(O)c1)C2 | inactive |
| Cc1ccc(-c2n[nH]c(=O)c3ccccc23)cc1S(=O)(=O)N(C)C1CCCCC1 | inconclusive: 28.2 µM [inhibitor, partial curve, poor fit] |
| CC(C)(C)NC(=O)CC1(C(=O)NCC2(c3ccccc3)CC2)CCCC1 | inactive |
| Clc1cnc2nc(SC/C=C/c3ccccc3)[nH]c2c1 | inconclusive: 5.01 µM [inhibitor, full curve, poor fit] |
| c1ccc(CC2CNc3ccccc3CN2)cc1 (configuration not stated) | inconclusive: 0.398 µM [inhibitor, full curve, poor fit] |
| O=C(O)C(c1c[nH]c2ccc(Cl)cc12)N1CCN(Cc2cccc(Cl)c2)CC1 (configuration not stated) | inconclusive: 44.7 µM [inhibitor, partial curve, poor fit] |
| CC(=O)c1ccc(NS(=O)(=O)c2cccc(C(=O)Nc3ccccc3C(=O)O)c2)cc1 | active: 31.6 µM |
| COc1cccc(-c2nc3cc(NC(=O)CC(C)C)ccc3o2)c1 | inconclusive: 100 µM [inhibitor, single point] |
| O=C(CN1C(=O)S/C(=C/c2cccn2-c2ccc(O)cc2)C1=O)N1CCCC1 | inactive |
| COc1ccc(N(CC(=O)N2CCN(Cc3ccccc3)CC2)S(=O)(=O)c2ccc(F)cc2)cc1 | inconclusive: 50.1 µM [inhibitor, single point] |

Arranged by number of heavy atoms (ascending): part of the list above

| Structure (SMILES) | Potency |
| --- | --- |
| C[C@](N)(C(=O)O)c1ccc(-c2nn[nH]n2)cc1 | inconclusive: 1 µM [inhibitor, full curve, poor fit] |
| O=C(Nc1nnc(Cc2ccccc2)s1)c1ccco1 | inactive |
| CC(=O)c1ccc(NS(=O)(=O)c2cccc(C(=O)Nc3ccccc3C(=O)O)c2)cc1 | active: 31.6 µM |
